Reference: US20240239872A1
No constants are given. Whether binding was seen depends on the method and setting. For some of these results: Binding can be weak; no strength is given.

Assays:
[1] = target: PVY CP (coat protein of potato virus Y, expressed from pEHISTEV-PVY CP) (Potato virus Y); test: dot blot; also Western blot and ELISA
[2] = substrate: CP of PVY isolate PVY1 (Potato virus Y); test: dot-ELISA on synthesized isolate CP
[3] = substrate: CP of PVY isolate PVY10 (Potato virus Y); test: dot-ELISA on synthesized isolate CP
[4] = substrate: CP of PVY isolate PVY2 (Potato virus Y); test: dot-ELISA on synthesized isolate CP
[5] = substrate: CP of PVY isolate PVY3 (Potato virus Y); test: dot-ELISA on synthesized isolate CP
[6] = substrate: CP of PVY isolate PVY4 (Potato virus Y); test: dot-ELISA on synthesized isolate CP
[7] = substrate: CP of PVY isolate PVY5 (Potato virus Y); test: dot-ELISA on synthesized isolate CP
[8] = substrate: CP of PVY isolate PVY6 (Potato virus Y); test: dot-ELISA on synthesized isolate CP
[9] = substrate: CP of PVY isolate PVY7 (Potato virus Y); test: dot-ELISA on synthesized isolate CP
[10] = substrate: CP of PVY isolate PVY8 (Potato virus Y); test: dot-ELISA on synthesized isolate CP
[11] = substrate: CP of PVY isolate PVY9 (Potato virus Y); test: dot-ELISA on synthesized isolate CP
[12] = substrate: CP of chilli ringspot virus (ChiRSV) (genus Potyvirus) (Chilli ringspot virus); test: dot blot; also Western blot and ELISA
[13] = substrate: CP of potato virus A (PVA) (genus Potyvirus) (Potato virus A); test: dot blot; also Western blot and ELISA
[14] = substrate: CP of potato virus M (PVM) (genus Carlavirus) (Potato virus M); test: dot blot; also Western blot and ELISA
[15] = substrate: CP of potato virus S (PVS) (genus Carlavirus) (Potato virus S); test: dot blot; also Western blot and ELISA
[16] = substrate: CP of potato virus X (PVX) (genus Potexvirus) (Potato virus X); test: dot blot; also Western blot and ELISA
[17] = substrate: CP of tobacco vein mottling virus (TVMV) (genus Potyvirus) (Tobacco vein mottling virus); test: dot blot; also Western blot and ELISA
[18] = substrate: CP of PVY isolate PVY5 (Potato virus Y); test: dot-ELISA on synthesized isolate CP (refers to Embodiment 2)

B1: monoclonal antibody M3 (antibody, V domains shown)
VH: EVILVESGGGLVKPGGSLRLSCAASGFTFSSHPLSWVRQSPDKRLEWVASISSGGRYTYYPDSVKGRLTISRDNAKNILYLHMNSLRSEDTAMYYCARRGSTATAWFAYWGQGTLVTVSA
VL: DIALTQSPASLAVSLGQRATISCKASQSVDYDGDSYMSWYQQKPGQPPKLLIYGASNLESGIPARFSGSGSGTDFTLNIHPVEEEDAATYYCQQSNEDLPTFGGGTKLEIK
- binding [1]: binds
- binding [2]: binds
- binding [3]: binds
- binding [4]: binds
- binding [5]: binds
- binding [6]: binds
- binding [7]: binds
- binding [8]: binds
- binding [9]: binds
- binding [10]: binds
- binding [11]: binds
- binding [12]: no binding
- binding [13]: no binding
- binding [14]: no binding
- binding [15]: no binding
- binding [16]: no binding
- binding [17]: no binding
- binding [18]: binds

B2: monoclonal antibody N1 (antibody, V domains shown)
VH: EVQLVESGGGLVQPGGSLKLSCAASGFTFSSYGMSWVRQSPDKRLEWVATINNNGGSTYYPDSVKGRFTISRDNAKNTLYLQMSSLKSEDTAVYYCARDAAFDCWGQGTTLTVSS
VL: DIVMSQSPSSLAVSAGEKVTMSCKSSQSLLNSRTRKNYLAWYQQKPGQSPKLLIYWASTRESGVPDRFTGSGSGTDFTLTISSVQAEDLAVYYCKQSYNLFTFGSGTKLEIK
- binding [1]: binds
- binding [2]: no binding
- binding [4]: no binding
- binding [7]: no binding
- binding [8]: no binding
- binding [12]: no binding
- binding [13]: no binding
- binding [14]: no binding
- binding [15]: no binding
- binding [16]: no binding
- binding [17]: no binding

B3: monoclonal antibody C1 (antibody, V domains shown)
VH: EVQLQQSGAELVRPGALVKLSCKASGFNIKDYYMHWVKQRPEEGLEWIGWIDPENGNTIYDPKFQGKASITADTSSNTVRLQLSSLTSEDTAVYYCARERGAYWGQGTLVTVSA
VL: QIVLTQSPAIMSASPGEKVTMTCSASSSVSYMYWFQQKPGSSPRLLIYDTSNLASGVPVRFSGSGSGTSYSLTISRMEAEDAATFYCQQWSSYPLTFGAGTKLELK
- binding [1]: binds
- binding [10]: no binding
- binding [12]: no binding
- binding [13]: no binding
- binding [14]: no binding
- binding [15]: no binding
- binding [16]: no binding
- binding [17]: no binding
